Results on 2 compounds are retold here after US10935544B2, “Glycan arrays and method of use” (OBI Pharma, Inc., priority 2015, dated 2021).

In this series the test system is Human IgM. Kind of series: Glycan array analysis (secondary test), relative anti-glycan Human IgM, lung cancer. The class given is binding. To be noted: categorized stages, FIG. 12D-12F.

Turning to `CCCCCCCCCCCCCCCCOCC(OCCCCCCCCCCCCCCCC)C(=O)NCCCCCO[C@H]1OC(CO)[C@@H](O[C@@H]2OC(CO)[C@H](O[C@H]3OC(CO)[C@H](O)C(O[C@@H]4OC(CO)[C@H](O)C(O[C@@H]5OC(CO)[C@H](O)C(O)C5O[C@@H]5OC(C)[C@@H](O)C(O)C5O)C4NC(C)=O)C3O)C(O)C2O)C(O)C1O` (some centres unmarked) [Globo H-lipid 1], the “detection of lung cancer stages by immobilized array” value is “could detect Stage I, Stage II and Stage III/IV lung cancers”.
On to `CCCCCCCCCCCCCCCCOC[C@@H](OCCCCCCCCCCCCCCCC)C(=O)NCCCCCO[C@@H]1O[C@H](CO)[C@@H](O[C@@H]2O[C@H](CO)[C@H](O[C@H]3O[C@H](CO)[C@H](O)[C@H](O[C@@H]4O[C@H](CO)[C@H](O)[C@H](O[C@@H]5O[C@H](CO)[C@H](O)[C@H](O[C@]6(C(=O)O)C[C@H](O)[C@@H](NC(C)=O)[C@H]([C@H](O)[C@H](O)CO)O6)[C@H]5O)[C@H]4NC(C)=O)[C@H]3O)[C@H](O)[C@H]2O)[C@H](O)[C@H]1O` [SSEA-4-lipid 1], for which the “detection of lung cancer stages by immobilized array” value is “could detect Stage I, Stage II and Stage III/IV lung cancers”.
